Binding data for one substance are collected here from publication PMC5123617.

Amino acid sequences for entries named in this document (tags omitted).
UniProt Q80XJ2: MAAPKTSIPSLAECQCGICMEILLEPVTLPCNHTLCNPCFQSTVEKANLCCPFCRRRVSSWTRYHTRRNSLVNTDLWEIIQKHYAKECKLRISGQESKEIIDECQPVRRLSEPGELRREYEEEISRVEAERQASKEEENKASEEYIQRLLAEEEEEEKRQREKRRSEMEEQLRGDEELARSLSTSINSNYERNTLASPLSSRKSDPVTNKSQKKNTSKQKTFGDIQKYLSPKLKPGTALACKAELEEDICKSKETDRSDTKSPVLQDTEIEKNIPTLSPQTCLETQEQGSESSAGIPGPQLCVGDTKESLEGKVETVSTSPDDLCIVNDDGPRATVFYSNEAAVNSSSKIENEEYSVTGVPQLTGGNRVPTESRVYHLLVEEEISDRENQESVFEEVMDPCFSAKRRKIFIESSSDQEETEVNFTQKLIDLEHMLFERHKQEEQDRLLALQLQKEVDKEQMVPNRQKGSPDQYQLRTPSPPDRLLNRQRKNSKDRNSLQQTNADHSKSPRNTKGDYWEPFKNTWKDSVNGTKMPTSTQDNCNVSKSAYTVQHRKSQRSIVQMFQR

Results are given in words; binding and its absence hold for the method and conditions named. In cells and extracts the contact can be indirect. Some results given as binding are weak or reduced against the parent protein; the word gives no strength.

This assay has as its target 3xFlag-H2AX wild type (H2AX-WT) (mouse) (UniProt P27661). Kind of assay: co-IP; Flag-tagged H2AX precipitated with anti-Flag M2 affinity gel overnight at 4°C from 250 ug of lysate (p300 lysis buffer: 20 mM NaH2PO4, 250 mM NaCl, 30 mM NaPPi, 0.1% NP-40, 5 mM EDTA; sonicated) of wt and junD-/- fibroblasts co-transfected with HA-ubiquitin; four washes; blot with RNF168-specific antibody.

As for “E3 ubiquitin ligase RNF168 (from UniProt Q80XJ2 1-565) (enzyme)”, the binding result is “binds”.
